Reference: the supplement of paper PMC3334620
In all, about 33,000 sequences were measured (“E-score (-0.5 to 0.5)”: median about -0.0014, highest 2% from about 0.25 on). Some of the results follow.

Target: T1, Cad1 (UniProt P24813)
T1 sequence: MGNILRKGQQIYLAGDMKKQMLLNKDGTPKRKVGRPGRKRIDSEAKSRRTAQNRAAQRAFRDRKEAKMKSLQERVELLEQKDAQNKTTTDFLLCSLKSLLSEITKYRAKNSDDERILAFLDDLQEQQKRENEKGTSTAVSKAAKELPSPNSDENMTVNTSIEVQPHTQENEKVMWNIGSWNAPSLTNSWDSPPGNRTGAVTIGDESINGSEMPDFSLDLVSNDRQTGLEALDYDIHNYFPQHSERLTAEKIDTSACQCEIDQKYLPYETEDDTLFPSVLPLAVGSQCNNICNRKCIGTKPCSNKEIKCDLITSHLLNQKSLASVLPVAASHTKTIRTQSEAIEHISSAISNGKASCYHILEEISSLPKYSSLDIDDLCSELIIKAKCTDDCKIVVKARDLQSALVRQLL
Assay: PBM E-score (8-mer binding enrichment) (E-score (-0.5 to 0.5)); higher = stronger / more preferred TF binding
Details: protein concentration: 100 nM; construct: GST-full length
Summary of the method: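 Universal all-10-mer Agilent arrays, double-stranded by primer extension on fresh or once-stripped slides, were probed with about 100-200 nM GST-tagged yeast transcription factors made by PURExpress. Fluorescent anti-GST detected bound protein, and masliner normalised the scans. E-scores from the Universal PBM Analysis Suite were given to each ungapped eight-base word pooled with its reverse complement.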

| Sequence | PBM E-score |
| --- | --- |
| AAATCTAT | 0.0783 |
| CAGCCTGC | -0.208 |
| CTAAGCGC | 0.166 |
| CCGTTCCG | 0.0271 |
| CGATGTAC | 0.0236 |
| ACAAGCAA | 0.0592 |
| AAGGACGG | -0.226 |
| CTCGGACC | 0.106 |
| GAATAATC | 0.201 |
| ACCCCAGA | -0.287 |
| AGCTGCCG | 0.0343 |
| GTCTACAA | -0.119 |
| AGACCCAG | -0.206 |
| ACCCGCCA | 0.133 |
| GTCTGAAA | 0.0244 |
| AACCGTAA | -0.0296 |
| CAGATTAA | 0.162 |
| AACGAGAG | -0.0581 |
| TAGAGCTA | -0.158 |
| GGCGCCTA | -0.0479 |
| AATACGGA | 0.077 |
| CTTTGTTC | 0.0827 |
| CCCACGGA | -0.117 |
| AGATTAAT | 0.16 |
| AAGGGTGT | 0.031 |

| Sequence | PBM E-score |
| --- | --- |
| GGTCTCAC | -0.0634 |
| ATGGTACG | 0.0436 |
| AATTCGTG | -0.14 |
| ATGCACAC | 0.125 |
| CGAACTTC | 0.129 |
| CATGATAG | 0.0205 |
| CAAAGCGA | 0.0638 |
| CCTTGCTC | -0.0109 |
| GGTCTGCA | 0.0477 |
| AAAGGGAC | -0.139 |
| ATTTCGGG | -0.034 |
| ACGCTCAT | 0.109 |
| CGCTACGC | -0.105 |
| ACCGGGTC | -0.125 |
| CTACGATC | 0.0442 |
| ACATTTAC | -0.0798 |
| CGGCGTAG | -0.0527 |
| ACAATTGC | 0.158 |
| CTTTATAA | 0.101 |
| ACTCGACA | 0.214 |
| ACTGGTAT | -0.044 |
| CTCTGTCA | 0.0441 |
| CCTAGTGA | -0.171 |
| ATTCAGAC | 0.243 |
| CTAAAGGC | 0.0134 |

| Sequence | PBM E-score |
| --- | --- |
| CGTTTTTA | 0.237 |
| GGGCATAC | -0.095 |
| ATTTCAGA | 0.0497 |
| CGCAACGA | -0.00619 |
| AACTTCGG | 0.152 |
| GTTTCATA | -0.0376 |
| CAGATGCG | -0.172 |
| TTCGGCAA | 0.0512 |
| CTCAAAAA | 0.0179 |
| AAACTAGG | -0.101 |
| AGCCCTCA | -0.148 |
| GCCCGTAC | -0.145 |
| CCACAAAC | 0.13 |
| CGTTCCAA | 0.0867 |
| TAAGAAAA | 0.112 |
| GTTGAACA | -0.145 |
| GGTCCCCA | -0.332 |
| CTCCGGGC | -0.177 |
| CCCCGAGC | -0.223 |
| TCAAGCCA | -0.0296 |
| CTATCAAA | 0.0734 |
| GCGTGCCC | -0.257 |
| GAAAGGTA | 0.0785 |
| AGATGCTG | -0.0805 |
| CCTACGAG | -0.0915 |

| Sequence | PBM E-score |
| --- | --- |
| CCTAGAGA | -0.0455 |
| GATGCTCC | -0.134 |
| GCAGCTGC | 0.0808 |
| TCGGCGCA | -0.0298 |
| AAAAACCC | -0.0261 |
| CTAGTGTA | 0.12 |
| GGTCTGAC | 0.0118 |
| CTGTCCAA | -0.00895 |
| CTTACTTC | 0.0569 |
| CGAAAGTA | -0.017 |
| CCATTTCG | -0.114 |
| GACTCGGA | -0.105 |
| GGGCGCCA | 0.0498 |
| CCACCCTA | 0.0274 |
| ATCCTGGG | -0.0923 |
| CCATTTAG | -0.127 |
| CCGATTAG | 0.0691 |
| AACATAAC | 0.135 |
| ACGGAAGG | -0.142 |
| CTCGGTTA | -0.057 |
| CACCTGGA | -0.0281 |
| TCTTGTAA | 0.0502 |
| AGTTTTGA | -0.0909 |
| AAATCTAA | 0.0765 |
| CGGGGGGC | -0.372 |

Single entries from the results shown:
PBM E-score, CTCGGTTA reads -0.057
PBM E-score, CGGGGGGC reads -0.372
PBM E-score, GGGCGCCA reads 0.0498
PBM E-score, GCAGCTGC reads 0.0808
PBM E-score, CCATTTAG reads -0.127
PBM E-score, CTAGTGTA reads 0.12
PBM E-score, CACCTGGA reads -0.0281

Later entries:

| Sequence | PBM E-score |
| --- | --- |
| GGGCCCAA | 0.0394 |
| CACGTGTC | -0.0173 |
| GGGATTGA | -0.0619 |
| GATCCTCC | -0.218 |
| ACTCTAAT | 0.0207 |
| GCAGCAAA | 0.0811 |
| ACTCCAAC | -0.0177 |
| GTGCCAGA | -0.192 |
| GGCTCGAC | -0.0711 |
| GCCTCACC | -0.14 |
| TATCTCGA | 0.0369 |
| AGTGTAAA | 0.039 |
| CAGTATGC | 0.00317 |
| CGCTTGGA | 0.057 |
| ATCGATGG | 0.0786 |
| AAGGTTGC | -0.00934 |
| AGAGGCCT | -0.101 |
| CGGTATAC | -0.00774 |
| GGTATGCA | -0.027 |
| CCATATTC | 0.102 |
| ATCAGCCC | 0.0703 |
| CAATGTCC | -0.0506 |
| ACCTTCGG | 0.00966 |
| GCTATAAC | -0.295 |
| AGGAAGGC | -0.135 |

| Sequence | PBM E-score |
| --- | --- |
| GTGTTTCA | -0.0607 |
| ATGTAACA | 0.168 |
| AAAGGAAA | 0.00578 |
| CTCGGCGA | 0.0436 |
| GGGCCACC | -0.0143 |
| CCCCACCC | -0.00434 |
| CCCTACGC | -0.174 |
| CTTCAGAA | -0.0225 |
| GCCTGAAC | -0.106 |
| CCATCACA | -0.00503 |
| AACTGATG | 0.166 |
| CACGGATG | 0.0931 |
| GAACATTA | 0.152 |
| ATTGCCTG | 0.0283 |
| AGGGCCTG | -0.0711 |
| CGAGTCTA | -0.231 |
| TCAAATCA | 0.101 |
| CAAGGGGA | -0.12 |
| AAAGGGTA | -0.142 |
| AAGCGCCC | -0.155 |
| CTGCCCGA | -0.129 |
| AAAAACCT | 0.162 |
| AGTATTAG | 0.299 |
| AGCAACCA | 0.0389 |
| CGGTGACC | -0.12 |

| Sequence | PBM E-score |
| --- | --- |
| AAATCGGC | 0.0248 |
| ACTCACCT | -0.184 |
| GTTGCTCA | 0.0699 |
| GAGTTTCC | 0.0578 |
| AGCGCCAA | -0.0679 |
| CGGGACAG | 0.064 |
| GTTACCAA | 0.0957 |
| ACAGAGTC | -0.0962 |
| AAAGAGCA | 0.0793 |
| ACGCGCGA | 0.139 |
| AACTCATA | -0.0244 |
| AGTTATAT | 0.101 |
| CCGAGAGA | 0.0842 |
| CGGACAGC | 0.224 |
| ACTCTAGG | -0.236 |
| GAACTATA | 0.09 |
| GTACGAAA | 0.144 |
| ACTGCTAT | -0.11 |
| CACAGCAA | 0.189 |
| ACCGGTAT | -0.0274 |
| CGACGTAA | 0.0772 |
| CGACTCAA | 0.0885 |
